Measurements: paper PMC11277477
These are yes or no findings as the source states them, for the method shown. In cells and extracts the contact can be indirect. Some entries that bind do so weakly or less than the wild type.

Protein sequences, listed by entry. Tags and fused reporters are not part of them.
UniProt B1N4X0: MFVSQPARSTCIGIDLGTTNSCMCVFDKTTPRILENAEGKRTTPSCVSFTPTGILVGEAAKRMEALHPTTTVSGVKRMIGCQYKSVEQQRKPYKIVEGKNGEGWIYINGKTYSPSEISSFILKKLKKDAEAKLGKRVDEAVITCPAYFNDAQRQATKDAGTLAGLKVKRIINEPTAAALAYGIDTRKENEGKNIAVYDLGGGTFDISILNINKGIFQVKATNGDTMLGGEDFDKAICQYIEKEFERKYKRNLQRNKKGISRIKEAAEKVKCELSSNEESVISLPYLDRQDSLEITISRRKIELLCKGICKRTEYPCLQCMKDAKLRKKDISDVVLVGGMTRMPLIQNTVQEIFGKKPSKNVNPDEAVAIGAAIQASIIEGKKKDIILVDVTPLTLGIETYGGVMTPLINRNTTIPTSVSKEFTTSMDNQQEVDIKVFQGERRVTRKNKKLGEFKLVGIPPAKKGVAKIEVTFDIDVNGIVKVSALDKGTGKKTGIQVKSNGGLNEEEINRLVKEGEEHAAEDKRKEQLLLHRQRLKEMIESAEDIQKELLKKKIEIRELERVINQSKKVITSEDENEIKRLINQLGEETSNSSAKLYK
UniProt C4M8X7: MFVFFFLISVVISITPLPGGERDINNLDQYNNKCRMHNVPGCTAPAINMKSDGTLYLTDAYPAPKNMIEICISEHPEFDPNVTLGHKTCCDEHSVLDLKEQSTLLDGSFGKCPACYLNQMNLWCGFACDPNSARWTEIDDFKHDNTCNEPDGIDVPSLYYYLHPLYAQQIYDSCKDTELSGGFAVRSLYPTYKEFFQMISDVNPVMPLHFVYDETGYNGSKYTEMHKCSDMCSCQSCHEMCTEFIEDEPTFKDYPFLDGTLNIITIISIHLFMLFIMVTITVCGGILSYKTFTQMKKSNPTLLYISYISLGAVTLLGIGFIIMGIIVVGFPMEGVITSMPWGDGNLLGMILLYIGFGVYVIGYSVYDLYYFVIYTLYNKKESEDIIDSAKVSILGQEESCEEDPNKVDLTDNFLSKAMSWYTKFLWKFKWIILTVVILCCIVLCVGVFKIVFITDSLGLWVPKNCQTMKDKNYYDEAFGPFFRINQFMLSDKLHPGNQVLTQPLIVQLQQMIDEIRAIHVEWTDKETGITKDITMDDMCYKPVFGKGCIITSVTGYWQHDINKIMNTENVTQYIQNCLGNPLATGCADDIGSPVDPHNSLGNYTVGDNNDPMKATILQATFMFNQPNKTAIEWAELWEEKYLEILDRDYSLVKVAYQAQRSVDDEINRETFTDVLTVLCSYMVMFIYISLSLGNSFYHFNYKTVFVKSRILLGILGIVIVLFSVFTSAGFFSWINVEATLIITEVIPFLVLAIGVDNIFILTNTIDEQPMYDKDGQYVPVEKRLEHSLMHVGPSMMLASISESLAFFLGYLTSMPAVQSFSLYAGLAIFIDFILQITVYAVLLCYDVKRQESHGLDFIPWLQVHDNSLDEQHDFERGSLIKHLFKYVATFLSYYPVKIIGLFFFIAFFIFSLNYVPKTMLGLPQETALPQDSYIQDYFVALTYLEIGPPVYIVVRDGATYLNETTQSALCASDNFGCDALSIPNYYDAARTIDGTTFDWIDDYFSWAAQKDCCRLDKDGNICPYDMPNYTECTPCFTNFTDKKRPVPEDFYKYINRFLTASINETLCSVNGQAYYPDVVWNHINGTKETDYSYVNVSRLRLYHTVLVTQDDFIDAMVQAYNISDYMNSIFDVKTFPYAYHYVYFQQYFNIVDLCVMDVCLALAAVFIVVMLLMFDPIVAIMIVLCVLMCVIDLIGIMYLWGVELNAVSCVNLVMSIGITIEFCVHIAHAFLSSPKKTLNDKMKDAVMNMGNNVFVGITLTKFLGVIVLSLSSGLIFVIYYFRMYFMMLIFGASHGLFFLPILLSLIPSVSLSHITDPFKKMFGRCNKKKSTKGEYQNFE
UniProt C4MAR7: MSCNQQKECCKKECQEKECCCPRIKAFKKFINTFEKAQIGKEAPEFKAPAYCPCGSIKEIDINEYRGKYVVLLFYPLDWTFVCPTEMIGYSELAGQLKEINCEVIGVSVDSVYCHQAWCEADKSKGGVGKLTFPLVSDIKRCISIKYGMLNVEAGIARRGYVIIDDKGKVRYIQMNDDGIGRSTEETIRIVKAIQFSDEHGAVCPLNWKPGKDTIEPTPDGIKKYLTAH

How the values were obtained:
[1] = biological target: GST-Linker recombinant protein (E. histolytica); experiment: pull-down; GST-tagged bait bound to glutathione-Sepharose (200 μg) incubated with total trophozoite lysate (2 mg), 4 h, 4 °C; bound proteins detected by western blot with specific antibodies; only the target purified
[2] = biological target: GST-Adh recombinant protein (E. histolytica); experiment: as above

Substance | binding [1] | binding [2]
EhHSP70 (EHI_127700) (from UniProt B1N4X0 1-598) | binds | –
EhNPC1 (from UniProt C4M8X7 1-1339) | binds | –
EhPeroxiredoxin (EhPrx) (from UniProt C4MAR7 1-229) (enzyme) | – | binds
